PubChem BioAssay AID1487 (National Center for Advancing Translational Sciences (NCATS), 2009)
Some of the results follow. These are further read-outs of the screen, such as a control signal, another cell line or another target. No call is given for them. Most of these compounds were active or inconclusive in the main read-out, so they are no random draw. The note in brackets gives the kind of curve behind each potency; many fits are weak.

Experiment: qHTS Assay for Modulators of Lamin A Splicing
Details: HeLa LMNA splicing GFP/RFP minigene ratio, 48 h
How it was run: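 Read-out is the ratio of GFP to DsRed2 object intensity, acquired by 488 nm laser-scanning cytometry on HeLa lamin A-EGFP minigene reporter cells. Compound incubation 48 hrs at 37 °C in Opti-MEM with 2% FBS; DMSO 0.5% final.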

[1] = measured here: GFP splicing reporter channel
[2] = measured here: RFP viability control channel

COc1ccc(NS(=O)(=O)c2ccc(OC)c(NC(=O)CCC3CCCCC3)c2)cc1
AC50 [1]: 12.6 µM [rising, partial curve, poor fit]
AC50 [2]: 35.5 µM [rising, single point]

CCc1nnc(N2C(=N)SCC2=O)s1
AC50 [1]: 0.0112 µM [falling, full curve, poor fit]

ClCc1nnc(-c2ccccc2)o1
AC50 [2]: 22.4 µM [rising, partial curve]

COc1ccc(/C=C/C(=O)c2ccc[nH]2)c(OC)c1OC
AC50 [2]: 7.08 µM [rising, partial curve, poor fit]

O=C(NCc1nc(-c2ccccc2)no1)c1cccs1
AC50 [1]: 14.1 µM [rising, single point]
AC50 [2]: 20 µM [rising, single point]

O=C(CCl)N=c1sccn1Cc1ccc(Cl)cc1Cl
AC50 [1]: 0.0178 µM [rising, full curve, poor fit]

CC1CCN(c2ncnc3ccccc23)CC1
AC50 [1]: 20 µM [rising, single point]
AC50 [2]: 15.8 µM [rising, single point]

CCOc1ccc(NC(=O)C(=O)N/N=C\c2ccc(CNS(=O)(=O)c3ccccc3)o2)cc1
AC50 [2]: 35.5 µM [falling, single point]

Cc1sc(NC(=O)CN(Cc2ccccc2)C(=O)C(C)C)c(C(N)=O)c1C
AC50 [1]: 11.2 µM [rising, single point]
AC50 [2]: 12.6 µM [rising, partial curve]

O=C(Nc1ccc(O)cc1)c1c(O)c2c([nH]c1=O)CCCC2
AC50 [2]: 0.0316 µM [rising, full curve, poor fit]

N#CCCn1cc(C(=O)N2CCOCC2)c(-c2ccc3c(c2)OCCO3)n1
AC50 [1]: 11.2 µM [rising, partial curve]

CCc1cccc(C)c1NC(=O)COC(=O)c1c2c(nc3ccccc13)/C(=C\c1cccs1)CCC2
AC50 [1]: 10 µM [rising, partial curve]
AC50 [2]: 7.94 µM [rising, partial curve, poor fit]

Cc1nn(Cc2ccccc2)c(Cl)c1C(=O)OCC(=O)NC(=O)NC12CC3CC(CC(C3)C1)C2
AC50 [2]: 12.6 µM [rising, partial curve]

Cc1n[nH]c(C)c1N1C(=O)c2cccc3c(N4CCCCCC4)ccc(c23)C1=O
AC50 [1]: 22.4 µM [falling, single point]
AC50 [2]: 12.6 µM [falling, partial curve]

Cn1c(Cc2ccccc2)[n+](C)c2ccccc21
AC50 [2]: 0.112 µM [falling, full curve, poor fit]

O=C(CNc1cccc2ccccc12)N/N=C/c1ccc([N+](=O)[O-])o1
AC50 [1]: 3.16 µM [falling, partial curve]
AC50 [2]: 6.31 µM [rising, single point]
